These are yes or no findings as the source states them, for the method shown. Binding calls can cover weak binding; strength is not graded here.
Molecular target: Human PDGF-BB-RM (Retention Motif) (human)
Test: immunofluorescence staining of fixed PDGFB-RM transfected HEK293 cells, 33 nM

binding: binds
B1: CL-33675-IgG (antibody, V domains shown)
VH: EVTLRESGPALVKPTQTLTLTCTFSGFSLSTYGMGVGWIRQPPGKALEWLANIWWDDDKYYNPSLKNRLTISKDTSKNQVVLTMTNMDPVDTATYYCARIESSGPKYSFDYWGQGTMVTVSS
VL: EIVLTQSPGTLSLSPGERATLSCRASSGSIWYSFVSWYQQKPGQAPRLLIYADDQRASGIPDRFSGSGSGTDFTLTISRLEPEDFAVYYCQSYGINIDVVFGGGTKVEIK

From patent publication US20170015742A1
